Measured values from article PMC9547009.
These are yes or no findings as the source states them, for the method shown. Binding seen in cells or lysates may run through a third protein. Binding can be weak; no strength is given.

Chains of the proteins cited; added tags and fusions are not shown. Lines headed by an entry give the natural chain unless they say otherwise; changes in a name come on top.
UniProt A0A8F2YJE5: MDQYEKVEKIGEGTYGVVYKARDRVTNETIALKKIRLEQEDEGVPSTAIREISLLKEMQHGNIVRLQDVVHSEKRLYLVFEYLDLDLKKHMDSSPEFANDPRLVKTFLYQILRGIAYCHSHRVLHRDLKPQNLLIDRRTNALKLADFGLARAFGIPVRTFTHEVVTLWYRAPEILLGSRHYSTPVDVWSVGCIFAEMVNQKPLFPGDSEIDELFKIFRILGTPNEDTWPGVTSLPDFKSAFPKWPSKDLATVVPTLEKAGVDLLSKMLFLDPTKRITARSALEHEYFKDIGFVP
UniProt A0A8F3BPS4: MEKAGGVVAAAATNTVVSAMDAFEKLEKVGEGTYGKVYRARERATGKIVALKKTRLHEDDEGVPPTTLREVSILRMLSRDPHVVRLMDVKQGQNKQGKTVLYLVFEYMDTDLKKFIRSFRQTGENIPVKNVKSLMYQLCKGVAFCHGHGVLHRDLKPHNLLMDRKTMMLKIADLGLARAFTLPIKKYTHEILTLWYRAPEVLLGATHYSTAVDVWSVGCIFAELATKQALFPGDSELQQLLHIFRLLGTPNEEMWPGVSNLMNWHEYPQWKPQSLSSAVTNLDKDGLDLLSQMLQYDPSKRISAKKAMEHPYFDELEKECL
UniProt A0A8F2YJ19: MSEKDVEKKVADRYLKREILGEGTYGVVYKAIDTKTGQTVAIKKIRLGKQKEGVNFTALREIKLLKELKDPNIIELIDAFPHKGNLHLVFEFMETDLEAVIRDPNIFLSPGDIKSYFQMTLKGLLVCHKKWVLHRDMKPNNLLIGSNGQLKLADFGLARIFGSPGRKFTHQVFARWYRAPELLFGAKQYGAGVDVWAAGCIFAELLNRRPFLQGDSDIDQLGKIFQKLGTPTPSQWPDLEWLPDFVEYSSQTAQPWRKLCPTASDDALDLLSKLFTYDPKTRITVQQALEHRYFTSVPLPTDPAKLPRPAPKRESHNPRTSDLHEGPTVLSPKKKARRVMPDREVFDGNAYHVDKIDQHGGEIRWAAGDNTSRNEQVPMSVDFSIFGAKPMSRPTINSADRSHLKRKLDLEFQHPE
UniProt A0A8F2YJ26: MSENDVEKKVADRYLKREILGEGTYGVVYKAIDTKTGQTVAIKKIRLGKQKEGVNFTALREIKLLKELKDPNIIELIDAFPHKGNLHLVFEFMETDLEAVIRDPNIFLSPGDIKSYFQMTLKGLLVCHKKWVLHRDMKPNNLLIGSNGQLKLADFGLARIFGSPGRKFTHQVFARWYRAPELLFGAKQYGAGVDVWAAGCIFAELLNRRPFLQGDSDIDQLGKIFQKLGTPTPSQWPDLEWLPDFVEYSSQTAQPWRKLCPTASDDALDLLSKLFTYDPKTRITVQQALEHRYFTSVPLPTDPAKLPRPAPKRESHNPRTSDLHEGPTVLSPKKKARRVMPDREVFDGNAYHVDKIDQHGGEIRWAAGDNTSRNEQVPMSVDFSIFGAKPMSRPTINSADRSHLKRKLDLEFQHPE
UniProt A0A8F2YJ49: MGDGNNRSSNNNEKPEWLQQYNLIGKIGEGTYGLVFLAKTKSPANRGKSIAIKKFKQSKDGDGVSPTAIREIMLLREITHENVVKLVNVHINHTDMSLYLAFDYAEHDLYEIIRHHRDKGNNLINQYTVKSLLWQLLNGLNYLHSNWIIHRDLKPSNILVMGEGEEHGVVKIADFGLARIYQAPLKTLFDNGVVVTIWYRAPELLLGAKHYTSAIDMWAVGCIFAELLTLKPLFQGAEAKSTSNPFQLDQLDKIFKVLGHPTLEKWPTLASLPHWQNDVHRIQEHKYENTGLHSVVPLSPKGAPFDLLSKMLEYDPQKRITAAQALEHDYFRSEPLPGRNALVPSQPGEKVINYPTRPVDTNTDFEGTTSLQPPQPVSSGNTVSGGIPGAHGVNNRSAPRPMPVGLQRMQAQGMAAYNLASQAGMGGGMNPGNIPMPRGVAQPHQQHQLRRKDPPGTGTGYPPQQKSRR
UniProt A0A8F2YJH9: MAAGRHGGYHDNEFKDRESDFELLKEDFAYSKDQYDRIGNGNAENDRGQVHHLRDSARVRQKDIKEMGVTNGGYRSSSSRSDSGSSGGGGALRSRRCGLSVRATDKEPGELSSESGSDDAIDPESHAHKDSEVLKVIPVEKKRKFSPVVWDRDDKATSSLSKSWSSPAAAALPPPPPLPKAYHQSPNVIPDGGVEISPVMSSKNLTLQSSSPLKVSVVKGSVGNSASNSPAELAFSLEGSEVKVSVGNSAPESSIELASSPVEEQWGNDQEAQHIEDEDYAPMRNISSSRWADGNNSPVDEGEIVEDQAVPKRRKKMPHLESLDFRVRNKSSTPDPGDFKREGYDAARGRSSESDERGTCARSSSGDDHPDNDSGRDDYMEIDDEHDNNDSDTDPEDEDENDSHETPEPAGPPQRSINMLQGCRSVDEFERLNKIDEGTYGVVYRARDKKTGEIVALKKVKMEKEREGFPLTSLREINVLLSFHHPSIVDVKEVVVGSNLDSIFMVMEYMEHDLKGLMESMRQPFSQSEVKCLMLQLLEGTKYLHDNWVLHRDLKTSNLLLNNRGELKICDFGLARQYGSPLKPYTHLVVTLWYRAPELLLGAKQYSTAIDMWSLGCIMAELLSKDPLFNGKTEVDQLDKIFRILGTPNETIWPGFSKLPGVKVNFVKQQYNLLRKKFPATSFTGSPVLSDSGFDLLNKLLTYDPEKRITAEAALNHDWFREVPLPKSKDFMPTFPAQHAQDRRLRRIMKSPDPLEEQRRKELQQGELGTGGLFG
UniProt A0A8F3BRK2: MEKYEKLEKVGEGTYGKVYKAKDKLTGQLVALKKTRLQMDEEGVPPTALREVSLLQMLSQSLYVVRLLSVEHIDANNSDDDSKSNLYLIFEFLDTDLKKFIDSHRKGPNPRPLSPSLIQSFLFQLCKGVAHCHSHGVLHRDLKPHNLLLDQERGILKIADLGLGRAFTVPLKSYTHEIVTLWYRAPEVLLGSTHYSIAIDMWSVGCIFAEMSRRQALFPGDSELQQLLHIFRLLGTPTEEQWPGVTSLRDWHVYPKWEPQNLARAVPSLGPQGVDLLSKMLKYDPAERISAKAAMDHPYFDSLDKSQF
UniProt A0A8F3BS08: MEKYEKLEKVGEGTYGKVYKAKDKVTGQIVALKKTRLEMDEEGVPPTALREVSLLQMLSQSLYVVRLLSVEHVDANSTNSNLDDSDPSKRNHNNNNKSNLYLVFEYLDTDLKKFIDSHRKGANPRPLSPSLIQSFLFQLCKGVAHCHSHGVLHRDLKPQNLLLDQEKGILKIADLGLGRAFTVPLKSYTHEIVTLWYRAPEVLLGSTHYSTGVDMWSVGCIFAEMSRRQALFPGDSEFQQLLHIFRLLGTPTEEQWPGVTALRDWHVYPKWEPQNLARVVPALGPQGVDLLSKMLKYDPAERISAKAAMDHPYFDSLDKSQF
UniProt A0A8F3BQA3: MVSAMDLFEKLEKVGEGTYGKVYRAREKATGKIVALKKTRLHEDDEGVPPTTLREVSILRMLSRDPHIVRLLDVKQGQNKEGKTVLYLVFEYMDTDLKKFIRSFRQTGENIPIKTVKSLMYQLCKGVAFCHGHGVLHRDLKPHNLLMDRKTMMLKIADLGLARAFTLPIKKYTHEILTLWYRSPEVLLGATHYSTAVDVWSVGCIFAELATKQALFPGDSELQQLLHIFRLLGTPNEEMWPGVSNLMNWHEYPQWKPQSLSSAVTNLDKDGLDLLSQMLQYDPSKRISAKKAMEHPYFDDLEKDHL
UniProt A0A8F2YJ43: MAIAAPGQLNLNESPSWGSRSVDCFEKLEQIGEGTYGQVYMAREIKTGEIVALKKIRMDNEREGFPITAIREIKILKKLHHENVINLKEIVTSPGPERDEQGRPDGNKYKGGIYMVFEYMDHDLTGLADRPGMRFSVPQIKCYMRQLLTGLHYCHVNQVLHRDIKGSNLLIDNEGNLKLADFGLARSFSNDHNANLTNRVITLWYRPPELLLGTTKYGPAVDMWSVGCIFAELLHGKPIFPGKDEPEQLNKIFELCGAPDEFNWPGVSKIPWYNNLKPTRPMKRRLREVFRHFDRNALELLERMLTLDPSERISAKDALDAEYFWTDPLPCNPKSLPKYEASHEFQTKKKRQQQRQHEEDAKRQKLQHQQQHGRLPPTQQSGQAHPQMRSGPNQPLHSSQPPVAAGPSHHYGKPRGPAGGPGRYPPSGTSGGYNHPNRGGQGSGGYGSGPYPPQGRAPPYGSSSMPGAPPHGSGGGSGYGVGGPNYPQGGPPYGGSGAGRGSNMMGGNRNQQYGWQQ
UniProt A0A8F3BQL1: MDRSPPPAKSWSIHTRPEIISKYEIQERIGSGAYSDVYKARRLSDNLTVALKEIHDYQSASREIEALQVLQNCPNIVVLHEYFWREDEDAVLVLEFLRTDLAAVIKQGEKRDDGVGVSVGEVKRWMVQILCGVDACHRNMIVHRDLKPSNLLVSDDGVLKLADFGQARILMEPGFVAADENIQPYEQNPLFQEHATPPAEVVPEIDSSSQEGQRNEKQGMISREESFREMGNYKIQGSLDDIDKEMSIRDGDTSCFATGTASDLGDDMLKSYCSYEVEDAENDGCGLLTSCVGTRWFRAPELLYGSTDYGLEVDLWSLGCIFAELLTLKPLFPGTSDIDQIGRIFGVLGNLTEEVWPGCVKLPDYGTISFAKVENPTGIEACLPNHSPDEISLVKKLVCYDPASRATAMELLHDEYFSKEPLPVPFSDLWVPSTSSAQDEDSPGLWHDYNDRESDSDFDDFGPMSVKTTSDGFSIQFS
UniProt A0A8F2YJJ4: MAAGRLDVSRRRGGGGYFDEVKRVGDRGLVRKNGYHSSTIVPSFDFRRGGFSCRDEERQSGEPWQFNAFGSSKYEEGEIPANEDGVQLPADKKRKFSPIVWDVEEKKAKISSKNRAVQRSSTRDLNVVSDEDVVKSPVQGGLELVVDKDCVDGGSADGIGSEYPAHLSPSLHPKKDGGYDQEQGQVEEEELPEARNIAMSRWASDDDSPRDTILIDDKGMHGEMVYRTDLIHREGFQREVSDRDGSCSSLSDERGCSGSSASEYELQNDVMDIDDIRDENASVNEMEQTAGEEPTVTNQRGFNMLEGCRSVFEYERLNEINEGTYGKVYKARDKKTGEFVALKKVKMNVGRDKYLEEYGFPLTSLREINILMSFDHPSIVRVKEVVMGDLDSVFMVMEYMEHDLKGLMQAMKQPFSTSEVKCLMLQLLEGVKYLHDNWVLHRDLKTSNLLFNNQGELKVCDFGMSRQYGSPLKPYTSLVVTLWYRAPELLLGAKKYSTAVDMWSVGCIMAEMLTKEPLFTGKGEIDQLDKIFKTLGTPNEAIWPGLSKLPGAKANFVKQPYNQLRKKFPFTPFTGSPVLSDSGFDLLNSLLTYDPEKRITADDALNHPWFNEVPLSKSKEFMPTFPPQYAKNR

What follows are substances tested against YFP^C-PtoCYCD3;3 (Populus tomentosa) (assay: split reporter; BiFC: YFP^N-PtoCDKs (pSPYNE(R)173) and YFP^C-PtoCYCD (pSPYCE(MR)) co-expressed in tobacco leaf lower epidermal cells by Agrobacterium GV3101; confocal microscopy after 48 h, excitation 488 nm; NLS-mCherry as nuclear marker).

Substance | binding
YFP^N-PtoCDKA;1 (from UniProt A0A8F2YJE5) | binds
YFP^N-PtoCDKB2;1 (from UniProt A0A8F3BPS4) | binds
YFP^N-PtoCDKD;1 (from UniProt A0A8F2YJ19) | binds
YFP^N-PtoCDKD;2 (from UniProt A0A8F2YJ26) | binds
YFP^N-PtoCDKE;2 (from UniProt A0A8F2YJ49) | binds
YFP^N-PtoCDKG;3 (from UniProt A0A8F2YJH9) | binds

Continued, values first:

binding | Substance
binds | YFP^N-PtoCDKB1;1 (from UniProt A0A8F3BRK2)
binds | YFP^N-PtoCDKB1;2 (from UniProt A0A8F3BS08)
binds | YFP^N-PtoCDKB2;2 (from UniProt A0A8F3BQA3)
binds | YFP^N-PtoCDKC;2 (from UniProt A0A8F2YJ43)
binds | YFP^N-PtoCDKF;1 (from UniProt A0A8F3BQL1)
binds | YFP^N-PtoCDKG;4 (from UniProt A0A8F2YJJ4)
